Measured values published in article PMC10203771 (Saudi Pharmaceutical Journal : SPJ, 2023).
Converted amounts (≈) assume the structure as drawn.

What was measured:
PC-3 cells = assay: Cell viability; type: cell-based; settings: Homo sapiens, PC-3, read-out: IC50 (mean ± SD; n = 3)
Procedure, shortened: (§1)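 Cells were grown in medium with 10% FBS and penicillin/streptomycin 100 units/mL, humidified, at 37 °C and 5% CO2; HT-29 and HEKa were in RPMI-1640. About 2000 cells/well were seeded in 96-well plates. Cells were rinsed once with PBS and five times with distilled water.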

HepG2 cells = assay: Cell viability; type: cell-based; settings: Homo sapiens, HepG2, read-out: IC50 (mean ± SD; n = 3)
Procedure, shortened: as §1

IC50 (PC-3 cells): 1.2 ± 0.6 µg/mL (≈ 2.21 µM) | IC50 (HepG2 cells): 0.8 ± 0.1 µg/mL (≈ 1.47 µM)
SMILES: COc1cccc2c1C(=O)c1c(O)c3c(c(O)c1C2=O)C[C@@](O)(C(=O)CO)C[C@@H]3O[C@H]1C[C@H](N)[C@H](O)[C@H](C)O1 [Doxorubicin]
